The target in the assay is CD3 molecule expressed on the surface of T cells (human) (UniProt P07766). Kind of assay: told with the construct; no direct binding assay described.

Protein sequences, listed by entry. Tags and fused reporters are not part of them. Residues count along the entry.
UniProt P07766, residues 23-207: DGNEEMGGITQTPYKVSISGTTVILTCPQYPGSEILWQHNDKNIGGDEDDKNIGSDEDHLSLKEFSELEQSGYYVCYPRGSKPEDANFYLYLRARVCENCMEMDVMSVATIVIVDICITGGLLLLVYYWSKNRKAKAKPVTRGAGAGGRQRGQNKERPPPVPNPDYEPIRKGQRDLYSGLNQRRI

No constants are given. Whether binding was seen depends on the method and setting. Some binding calls cover weakened binding; strength is not graded here.

B1: 1B10×CD3 bispecific nanobody (bispecific antibody)
chain: EVQLVESGGGLVQPGGSLKLSCQASRMLFKVNTMGWYRQGPGKQRELVADITEGGSIKYADSVKGRFTISRDNAKTTVYLQMNSLKPEDTAVYFCNAIDRVNSQYWGQGTQVTVSSGGGGSQVKLEESGGGLVQAGGLLRVSCTASGRTFDTMGWFRQAPGKEREFVAAVRWSSGNTLYGNTVKGRFTISRDTATNTVYLQMSSLKHEDTAVYYCAARWGGRGAADHWGQGTQVTVSSHHHHHH
For the molecule B1, the binding result is on record as “binds”.

For the origin of these results see patent publication US20230046744A1 (APO T B V, published 2023).
